Results published in patent publication US20180037904A1.
Results are given in words; binding and its absence hold for the method and conditions named. Some results given as binding are weak or reduced against the parent protein; the word gives no strength.

Sequences of proteins named here, by UniProt entry; tags and fusion partners are left off. A change or cut given only in a name is not applied to a line headed by its entry.
UniProt P93431: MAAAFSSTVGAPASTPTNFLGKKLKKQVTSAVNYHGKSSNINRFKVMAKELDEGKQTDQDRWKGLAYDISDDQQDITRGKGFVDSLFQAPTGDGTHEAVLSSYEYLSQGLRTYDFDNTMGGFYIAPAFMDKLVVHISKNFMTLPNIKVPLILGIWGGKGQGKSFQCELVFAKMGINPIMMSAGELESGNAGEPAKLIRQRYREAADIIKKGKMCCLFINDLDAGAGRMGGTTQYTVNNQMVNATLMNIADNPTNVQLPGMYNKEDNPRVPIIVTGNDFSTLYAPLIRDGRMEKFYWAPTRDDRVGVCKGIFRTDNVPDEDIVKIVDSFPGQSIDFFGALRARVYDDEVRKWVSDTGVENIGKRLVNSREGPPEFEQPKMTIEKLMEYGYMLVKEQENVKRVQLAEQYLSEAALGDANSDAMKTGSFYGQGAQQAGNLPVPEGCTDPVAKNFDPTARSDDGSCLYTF

Biological target: recombinant Oryza australiensis Rubisco activase (RCA), beta (short) isoform (Oryza australiensis) (UniProt P93431)
Assay: native gel, concentration-dependent self-oligomerisation

B1: recombinant Oryza australiensis Rubisco activase (RCA), beta (short) isoform (enzyme)
chain: MAKELDEDKQTDQDKWKGLAYDISDDQQDITRGKGLVDSLFQAPMGDGTHEAVLSSYEYLSQGLKMLDNTMGGFYIAPAFMDKLVVHISKNFMALPNIKVPLILGIWGGKGQGKSFQCELVFSKMGINPIMMSAGELESGNAGEPAKLIRQRYREAADIIKKGKMCCLFINDLDAGAGRMGGTTQYTVNNQMVNATLMNIADNPTNVQLPGMYNKEDNPRVPIIVTGNDFSTLYAPLIRDGRMEKFYWAPTRDDRVGVCKGIFRTDNVPDEDIVKIVDSFPGQSIDFFGALRARVYDDEVRKWVSDTGVENIGKKLVNSREGPPEFEQPKMTIDKLMEYGHMLVREQENVKRVQLADKYLSEAALGDANSDAMKTGSFYGAAPSS
B1 was tested, and the binding was “binds”.
